Test results from patent US20030162221A1.
Results are given in words; binding and its absence hold for the method and conditions named. In cells and extracts the contact can be indirect. Some results given as binding are weak or reduced against the parent protein; the word gives no strength. Sequences can lack the tags named with a protein.

Experiments:
[1] = molecular target: T1, Dun1 (Saccharomyces cerevisiae) (UniProt P39009); assay: anti-FLAG co-IP, LC-MS/MS
T1 sequence (looked up): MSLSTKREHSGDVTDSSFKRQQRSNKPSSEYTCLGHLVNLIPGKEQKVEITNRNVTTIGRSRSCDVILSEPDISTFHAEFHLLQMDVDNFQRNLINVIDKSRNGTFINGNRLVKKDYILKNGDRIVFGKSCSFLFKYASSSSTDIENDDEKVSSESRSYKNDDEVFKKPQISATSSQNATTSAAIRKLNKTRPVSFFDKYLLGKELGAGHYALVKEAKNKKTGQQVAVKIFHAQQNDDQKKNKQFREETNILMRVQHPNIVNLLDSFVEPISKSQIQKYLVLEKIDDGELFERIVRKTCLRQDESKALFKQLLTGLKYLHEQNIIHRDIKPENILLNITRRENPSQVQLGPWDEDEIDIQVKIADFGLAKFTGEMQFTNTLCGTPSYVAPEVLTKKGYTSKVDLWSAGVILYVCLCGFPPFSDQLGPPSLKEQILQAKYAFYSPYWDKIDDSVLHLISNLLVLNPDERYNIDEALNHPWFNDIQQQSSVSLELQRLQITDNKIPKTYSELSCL

[2] = molecular target: T2, Mre11 (Saccharomyces cerevisiae) (UniProt P32829); assay: anti-FLAG co-IP, LC-MS/MS
T2 sequence (looked up): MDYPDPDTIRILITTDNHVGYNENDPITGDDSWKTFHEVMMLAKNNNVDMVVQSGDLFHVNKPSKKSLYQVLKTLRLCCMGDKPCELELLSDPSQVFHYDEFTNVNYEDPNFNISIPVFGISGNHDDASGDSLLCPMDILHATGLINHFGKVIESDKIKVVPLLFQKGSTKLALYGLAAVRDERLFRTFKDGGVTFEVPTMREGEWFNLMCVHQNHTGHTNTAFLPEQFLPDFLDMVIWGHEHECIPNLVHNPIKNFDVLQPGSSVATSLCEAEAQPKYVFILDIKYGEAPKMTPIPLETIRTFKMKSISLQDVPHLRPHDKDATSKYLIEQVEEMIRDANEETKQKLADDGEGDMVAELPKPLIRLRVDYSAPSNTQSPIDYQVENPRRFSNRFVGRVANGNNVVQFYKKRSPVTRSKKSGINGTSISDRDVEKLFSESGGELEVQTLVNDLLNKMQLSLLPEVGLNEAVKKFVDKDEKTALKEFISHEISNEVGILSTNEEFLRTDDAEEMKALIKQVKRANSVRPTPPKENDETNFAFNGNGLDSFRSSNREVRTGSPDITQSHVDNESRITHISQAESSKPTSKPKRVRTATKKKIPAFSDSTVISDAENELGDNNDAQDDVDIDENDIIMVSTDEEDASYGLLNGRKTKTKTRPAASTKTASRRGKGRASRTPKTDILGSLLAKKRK

[3] = molecular target: T3, Xrs2 (Saccharomyces cerevisiae) (UniProt P33301); assay: anti-FLAG co-IP, LC-MS/MS
T3 sequence (looked up): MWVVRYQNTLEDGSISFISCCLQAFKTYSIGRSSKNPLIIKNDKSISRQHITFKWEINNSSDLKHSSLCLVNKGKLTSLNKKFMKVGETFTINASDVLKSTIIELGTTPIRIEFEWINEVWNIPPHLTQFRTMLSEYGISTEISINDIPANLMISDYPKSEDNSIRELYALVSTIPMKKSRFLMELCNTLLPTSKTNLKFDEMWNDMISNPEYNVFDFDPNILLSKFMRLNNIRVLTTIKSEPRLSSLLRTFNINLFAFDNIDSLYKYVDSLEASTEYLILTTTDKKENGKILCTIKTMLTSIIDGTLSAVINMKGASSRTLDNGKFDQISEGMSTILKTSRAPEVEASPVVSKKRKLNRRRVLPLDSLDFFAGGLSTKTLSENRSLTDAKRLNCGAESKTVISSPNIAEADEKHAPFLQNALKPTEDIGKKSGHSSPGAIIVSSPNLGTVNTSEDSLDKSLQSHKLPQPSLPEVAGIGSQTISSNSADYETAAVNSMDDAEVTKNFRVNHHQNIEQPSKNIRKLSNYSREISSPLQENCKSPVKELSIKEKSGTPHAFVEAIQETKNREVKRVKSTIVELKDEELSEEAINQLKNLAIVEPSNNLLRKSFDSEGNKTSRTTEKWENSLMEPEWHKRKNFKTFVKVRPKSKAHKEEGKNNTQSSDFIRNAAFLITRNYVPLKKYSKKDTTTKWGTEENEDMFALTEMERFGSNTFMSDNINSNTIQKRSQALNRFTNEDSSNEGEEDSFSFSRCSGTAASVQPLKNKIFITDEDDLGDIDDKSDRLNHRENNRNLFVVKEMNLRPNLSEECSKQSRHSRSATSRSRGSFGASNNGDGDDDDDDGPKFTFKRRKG

[4] = molecular target: T2, Mre11 (Saccharomyces cerevisiae); assay: anti-FLAG co-IP, LC-MS/MS; pair by Table 2
[5] = molecular target: T3, Xrs2 (Saccharomyces cerevisiae); assay: anti-FLAG co-IP, LC-MS/MS; pair by Table 2
[6] = molecular target: T1, Dun1 (Saccharomyces cerevisiae); assay: anti-FLAG co-IP, LC-MS/MS; Dun1 was the prey by Table 2
[7] = molecular target: T4, Hog1 (Saccharomyces cerevisiae) (UniProt P32485); assay: anti-FLAG co-IP, LC-MS/MS
T4 sequence (looked up): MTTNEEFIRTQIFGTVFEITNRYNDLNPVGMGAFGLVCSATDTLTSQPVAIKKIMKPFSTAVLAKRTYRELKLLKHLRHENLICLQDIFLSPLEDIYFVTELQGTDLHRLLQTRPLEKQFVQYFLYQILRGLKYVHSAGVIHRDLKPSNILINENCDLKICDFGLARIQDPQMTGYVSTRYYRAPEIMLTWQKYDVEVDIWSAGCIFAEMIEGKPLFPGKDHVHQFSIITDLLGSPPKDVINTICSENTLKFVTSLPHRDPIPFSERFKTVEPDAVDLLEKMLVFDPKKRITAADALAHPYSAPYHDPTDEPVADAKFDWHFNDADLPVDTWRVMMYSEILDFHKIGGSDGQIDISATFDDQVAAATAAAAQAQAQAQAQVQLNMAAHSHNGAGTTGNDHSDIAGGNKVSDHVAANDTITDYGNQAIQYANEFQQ

Measured: binding

B1: Rad50 (protein, Saccharomyces cerevisiae, UniProt P12753 1-1312, looked up)
chain: MSAIYKLSIQGIRSFDSNDRETIEFGKPLTLIVGMNGSGKTTIIECLKYATTGDLPPNSKGGVFIHDPKITGEKDIRAQVKLAFTSANGLNMIVTRNIQLLMKKTTTTFKTLEGQLVAINNSGDRSTLSTRSLELDAQVPLYLGVPKAILEYVIFCHQEDSLWPLSEPSNLKKKFDEIFQAMKFTKALDNLKSIKKDMSVDIKLLKQSVEHLKLDKDRSKAMKLNIHQLQTKIDQYNEEVSEIESQLNEITEKSDKLFKSNQDFQKILSKVENLKNTKLSISDQVKRLSNSIDILDLSKPDLQNLLANFSKVLMDKNNQLRDLETDISSLKDRQSSLQSLSNSLIRRQGELEAGKETYEKNRNHLSSLKEAFQHKFQGLSNIENSDMAQVNHEMSQFKAFISQDLTDTIDQFAKDIQLKETNLSDLIKSITVDSQNLEYNKKDRSKLIHDSEELAEKLKSFKSLSTQDSLNHELENLKTYKEKLQSWESENIIPKLNQKIEEKNNEMIILENQIEKFQDRIMKTNQQADLYAKLGLIKKSINTKLDELQKITEKLQNDSRIRQVFPLTQEFQRADLEMDFQKLFINMQKNIAINNKKMHELDRRYTNALYNLNTIEKDLQDNQKSKEKVIQLLSENLPEDCTIDEYNDVLEETELSYKTALENLKMHQTTLEFNRKALEIAERDSCCYLCSRKFENESFKSKLLQELKTKTDANFEKTLKDTVQNEKEYLHSLRLLEKHIITLNSINEKIDNSQKCLEKAKEETKTSKSKLDELEVDSTKLKDEKELAESEIRPLIEKFTYLEKELKDLENSSKTISEELSIYNTSEDGIQTVDELRDQQRKMNDSLRELRKTISDLQMEKDEKVRENSRMINLIKEKELTVSEIESSLTQKQNIDDSIRSKRENINDIDSRVKELEARIISLKNKKDEAQSVLDKVKNERDIQVRNKQKTVADINRLIDRFQTIYNEVVDFEAKGFDELQTTIKELELNKAQMLELKEQLDLKSNEVNEEKRKLADSNNEEKNLKQNLELIELKSQLQHIESEISRLDVQNAEAERDKYQEESLRLRTRFEKLSSENAGKLGEMKQLQNQIDSLTHQLRTDYKDIEKNYHKEWVELQTRSFVTDDIDVYSKALDSAIMKYHGLKMQDINRIIDELWKRTYSGTDIDTIKIRSDEVSSTVKGKSYNYRVVMYKQDVELDMRGRCSAGQKVLASIIIRLALSETFGANCGVIALDEPTTNLDEENIESLAKSLHNIINMRRHQKNFQLIVITHDEKFLGHMNAAAFTDHFFKVKRDDRQKSQIEWVDINRVTY
not listed: [7]
binds: all other assays above

B2: Rck2 (protein, Saccharomyces cerevisiae, UniProt P38623 1-610, looked up)
chain: MLKIKALFSKKKPDQADLSQESKKPFKGKTRSSGTNNKDVSQITSSPKKSFQDKNIVQYPSVVADDHHMKSLTDELVTTIDSDSSPSDNITTENVETVTSVPAIDVHESSEGQLSSDPLISDESLSEQSEIISDIQDDSTDDDNMEDEIPEKSFLEQKELIGYKLINKIGEGAFSKVFRAIPAKNSSNEFLTKNYKAVAIKVIKKADLSSINGDHRKKDKGKDSTKTSSRDQVLKEVALHKTVSAGCSQIVAFIDFQETDSYYYIIQELLTGGEIFGEIVRLTYFSEDLSRHVIKQLALAVKHMHSLGVVHRDIKPENLLFEPIEFTRSIKPKLRKSDDPQTKADEGIFTPGVGGGGIGIVKLADFGLSKQIFSKNTKTPCGTVGYTAPEVVKDEHYSMKVDMWGIGCVLYTMLCGFPPFYDEKIDTLTEKISRGEYTFLKPWWDEISAGAKNAVAKLLELEPSKRYDIDQFLDDPWLNTFDCLPKEGESSQKKAGTSERRHPHKKQFQLFQRDSSLLFSPAAVAMRDAFDIGNAVKRTEEDRMGTRGGLGSLAEDEELEDSYSGAQGDEQLEQNMFQLTLDTSTILQRRKKVQENDVGPTIPISATIRE
binds: [7]
